Values of other authors, collected in patent US20120003310A1 (priority 2009, published 2012).
For at least one compound, name, drawing or mass did not settle the structure.

Settings: citrate salt of the drug substance, per reference; cited from earlier work

Q: For Nc1ncn([C@H]2C[C@H](O)[C@@H](CO)O2)c(=O)n1 [Decitabine], which Polynorpb is on record?
A: Crystalline
